Laboratory results taken from PubChem BioAssay AID662 (National Center for Advancing Translational Sciences (NCATS), 2007).
“And” between values parts separate entries of the source, which are not always exact repeats. Equal entries are not always repeated. The list shows a part of the results. The main result of the screen is listed elsewhere. These columns were measured beside it and carry no call. Compounds called inactive in the main read-out are mostly missing here. Potencies come from curve fits of mixed quality, noted in brackets.

Experiment: Cell signaling CRE-BLA (Fsk stim)
Conditions: CHO CRE-bla reporter (cAMP response element driving beta-lactamase), forskolin EC10, beta-lactamase ratio; measured here: 460 nm blue channel
Outline: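 AC50 values, positive or negative, reflect shifts in EC10 NKH 477-induced CRE-bla reporter activity in CHO cells. Incubation lasted 3 h at 37 °C before CCF4 substrate (2 h, room temperature) and ratiometric 460/530 nm reading.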
For `COc1ccc(N/C(C)=C2/C(=O)C(=O)N(CCO)C2c2ccc(Br)cc2)cc1` (stereo not drawn), the AC50 was 31.6 µM [falling, single point].
For `N#Cc1cc2c(=O)n3ccccc3nc2n(CCCn2ccnc2)c1=N`, the AC50 was 10 µM [rising, partial curve].
In the case of `Cc1ccc(NC(=O)c2cc(-c3ccc(C)o3)nc3ccccc23)nc1`, the AC50 is reported as 20 µM [rising, single point].
In the case of `CC1(C)Cc2ccccc2C2CC(O)C(=O)N21` (stereo not drawn), the AC50 is reported as 12.6 µM [falling, single point].
With `O=C(c1ccncc1)c1nccn1-c1ccccn1` the AC50 was 3.98 µM [falling, single point].
For `OC(CN1c2ccccc2Sc2ccccc21)Cn1nnc2ccccc21` (stereo not drawn), the AC50 was 10 µM [falling, single point].
In the case of `Cc1cc(C)c(C#N)c(N2CCCC2)n1`, the AC50 is reported as 25.1 µM [rising, single point].
For `Cc1ccc(C(=O)Nc2ncc(Cc3ccc(F)cc3)s2)o1`, the AC50 was 1.26 µM [rising, full curve, poor fit].
In the case of `Fc1ccc(-n2c(Cc3ccccc3)nnc2SCc2nc(-c3cccs3)no2)cc1`, the AC50 is reported as 12.6 µM [rising, single point].
With `Cc1cc(C)nc(-n2c(Nc3ccccc3)cc(=O)c3c(C)n(-c4ccccc4)c(=O)nc32)n1` the AC50 was 1.26 µM [falling, partial curve].
With `CCOc1ccccc1-c1nc(-c2ccc(C)nc2OC)no1` the AC50 was 12.6 µM [rising, partial curve].
With `COc1cc(-c2nnc(SCc3cc(=O)oc4cc(C)ccc34)o2)cc(OC)c1OC` the AC50 was 2.51 µM [rising, full curve].
For `Cn1cc(CN2CCc3ccccc3C2)c2ccccc21`, the AC50 was 12.6 µM [falling, single point].
In the case of `CCN(C(=O)c1cn(CC)c(=O)c2cc(OC)c(OC)cc12)c1ccccc1C`, the AC50 is reported as 12.6 µM [rising, single point].
With `N#CCCn1c(=O)c(-c2cccs2)nc2cnc(OCc3ccccc3)nc21` the AC50 was 1.26 µM [rising, full curve].
With `Cc1ccc(C)c(-n2nnnc2SCC(=O)c2ccc3c(c2)NC(=O)CO3)c1` the AC50 was 12.6 µM [falling, partial curve, poor fit].
For `O=C(NCCC1=CCCCC1)C1CCN(S(=O)(=O)c2cccs2)CC1`, the AC50 was 0.501 µM [falling, partial curve].
With `Cc1cc(C)nc(NC(=NCCc2c[nH]c3ccccc23)NC(=O)c2ccco2)n1` the AC50 was 0.316 µM [rising, partial curve].
In the case of `Cc1nc2ccccn2c1P(=O)(N1CCCCC1)N1CCCCC1`, the AC50 is reported as 1.58 µM [falling, partial curve].
In the case of `CCOC(=O)c1c(C)[nH]c(C(=O)Cn2nnc(-c3ccccc3)n2)c1C`, the AC50 is reported as 3.16 µM [rising, full curve].
In the case of `CCN(CC)c1ccc(/C=N/n2nnnc2N)c(O)c1`, the AC50 is reported as 12.6 µM [rising, partial curve].
With `O=C(O)C1CCN(S(=O)(=O)c2cccnc2)CC1` the AC50 was 25.1 µM [rising, partial curve].
In the case of `CCn1nnc(-c2ccccc2NC(=O)c2cc(OC)c(OC)c(OC)c2)n1`, the AC50 is reported as 2 µM [rising, full curve].
For `CCC(C)NC(=O)c1c(C)cc(=O)oc1C` (stereo not drawn), the AC50 was 0.126 µM [falling, full curve, poor fit].
In the case of `CCC(OC(=O)C(NC(=O)c1ccccc1)c1ccccc1)C(=O)Nc1cc(C)on1` (stereo not drawn), the AC50 is reported as 1.26 µM [falling, partial curve, poor fit].
In the case of `COc1ccc(C(=O)OCn2nnc3ccccc3c2=O)cc1OC`, the AC50 is reported as 2 µM [rising, full curve].
With `[N-]=[N+]=CC(=O)C(Cc1ccccc1)N1C(=O)c2ccccc2C1=O` (stereo not drawn) the AC50 was 3.98 µM [rising, single point].
In the case of `COc1ccccc1N1CCN(CC(=O)Nc2cccc(F)c2)CC1`, the AC50 is reported as 0.398 µM [falling, full curve].
In the case of `CN1CCN(c2ncc3nc(-c4ccc(Cl)cc4)c(=O)n(C)c3n2)CC1`, the AC50 is reported as 2 µM [rising, full curve].
With `CCC(C)Nc1nc2c(c(=O)n(C)c(=O)n2C)n1Cc1cccc(C)c1` (stereo not drawn) the AC50 was 10 µM [rising, single point].
For `CN1CC(=O)NC1=NC(=O)C12CC3CC(CC(C3)C1)C2`, the AC50 was 3.16 µM [falling, single point].
With `CCOC(=O)c1ccccc1NC(=O)c1cc2sccc2n1C` the AC50 was 10 µM [rising, partial curve].
With `COCCn1c(=O)c(-c2cccc(C#N)c2)nc2cnc(Nc3ccccc3)nc21` the AC50 was 3.98 µM [rising, partial curve].
For `Cc1ccc(S(=O)(=O)c2c(N)n(/N=C/c3ccco3)c3nc4ccccc4nc23)cc1C`, the AC50 was 10 µM [rising, partial curve].
With `CC(C)c1nc(N2CCOCC2)c(C#N)c2c1CCCC2` the AC50 was 12.6 µM [rising, partial curve, poor fit].
For `COc1nnc(-c2ccc(N3CCOCC3)c(NC(=O)c3ccco3)c2)c2ccccc12`, the AC50 was 2.51 µM [rising, full curve].
With `COCCn1c(=O)c(CCc2ccccc2)nc2cnc(N3CCOCC3)nc21` the AC50 was 20 µM [rising, partial curve].
With `CCc1cc(=O)oc2c(C)c(O)c(CN(C)C)cc12` the AC50 was 12.6 µM [rising, partial curve].
In the case of `CCOC(=O)N1CCN(C(=O)c2ccc(Cn3c(=S)[nH]c4cc5c(cc4c3=O)OCO5)cc2)CC1`, the AC50 is reported as 0.0631 µM [falling, full curve, poor fit].
For `Cc1ccc(OCC(=O)Nc2cccc(-c3nnc(-c4ccccc4)o3)c2)cc1`, the AC50 was 0.00398 µM [falling, full curve, poor fit].
In the case of `COc1cccc(C2=NOC(C(=O)NCc3ccc(F)cc3)C2)c1` (stereo not drawn), the AC50 is reported as 12.6 µM [rising, partial curve].
In the case of `Cn1c(NC(=O)c2ccccc2Br)cc(=O)n(C)c1=O`, the AC50 is reported as 10 µM [rising, partial curve].
For `O=c1c(-c2ccccc2)nc2cnc(N3CCNCC3)nc2n1Cc1cccs1`, the AC50 was 2.51 µM [rising, full curve].
In the case of `NC1=C(c2ccc(F)cc2)C(=O)CS1`, the AC50 is reported as 12.6 µM [rising, single point].
In the case of `CCN1CCN(Cc2c(O)c(Cl)cc3c(C)cc(=O)oc23)CC1`, the AC50 is reported as 3.16 µM [rising, partial curve].
In the case of `CC(=O)O[C@]1(C(C)=O)CC[C@@H]2[C@@H]3C=C(C)C4=CC(=O)CC[C@@]4(C)[C@H]3CC[C@]21C`, the AC50 is reported as 10 µM [rising, partial curve, poor fit].
For `CCN1CCCC1CNC(=O)c1cc2c(-c3cccc(OC)c3)nn(C)c2s1` (stereo not drawn), the AC50 was 10 µM [rising, single point].
For `CCCCOc1cc(C[C@@H]2CNC(=O)N2)ccc1OC`, the AC50 was 5.01 µM [rising, full curve] and 100 nM [rising, full curve].
With `CCn1c(SCC(=O)NCc2ccco2)nc2c1c(=O)n(C)c(=O)n2C` the AC50 was 0.251 µM [falling, full curve, poor fit].
With `O=C(CCNc1ccc(F)c(Cl)c1)c1ccco1` the AC50 was 0.631 µM [falling, full curve].
For `O=S(=O)(c1ccc2c(c1)OCCO2)N1CCC(c2nc3ccc(Cl)cc3[nH]2)CC1`, the AC50 was 0.794 µM [falling, full curve].
In the case of `CC1CN(Cc2ccc(C#N)cc2Cl)CC(C)O1` (stereo not drawn), the AC50 is reported as 5.01 µM [rising, single point].
For `O=C(Cn1cnc2c(nnn2-c2ccc(F)cc2)c1=O)N1CCCc2ccccc21`, the AC50 was 1.26 µM [falling, partial curve].
In the case of `COc1ccc(S(=O)(=O)Nc2ccc(F)c(F)c2)cc1Cl`, the AC50 is reported as 0.00316 µM [falling, full curve, poor fit].
For `O=C1c2cccc3c(N4CCCCC4)ccc(c23)C(=O)N1c1ccccn1`, the AC50 was 20 µM [falling, single point].
For `COc1ccccc1-c1nnc(SCC(=O)NCc2c(C)c(Cl)cc(C(C)C)c2O)o1`, the AC50 was 25.1 µM [falling, single point].
In the case of `Cc1nc2sc(C)c(C)c2c(=O)[nH]1`, the AC50 is reported as 12.6 µM [rising, partial curve].
In the case of `Cn1c(=O)c2c(nc(NCc3ccccc3)n2Cc2ccc(F)cc2)n(C)c1=O`, the AC50 is reported as 3.16 µM [rising, partial curve].
For `O=C(OCc1c(Cl)cccc1Cl)c1ccccn1`, the AC50 was 5.01 µM [falling, single point].
For `COC(=O)COc1ccc(C(=O)OC)cc1`, the AC50 was 5.01 µM [rising, single point].
In the case of `Cn1c(SC2=CS(=O)(=O)c3ccccc32)nc2ccccc21`, the AC50 is reported as 5.01 µM [falling, full curve].
For `Cn1c(C(=O)NCC2CCCO2)cc2c(=O)n(C)c3ccccc3c21` (stereo not drawn), the AC50 was 3.98 µM [rising, full curve].
In the case of `Cc1cc2ccccc2c(=O)n1CC(=O)NCC(=O)N1CCN(c2ccccc2)CC1`, the AC50 is reported as 0.02 µM [falling, full curve].
In the case of `COc1ccccc1CNC(=O)c1cnc2ccccn2c1=O`, the AC50 is reported as 12.6 µM [rising, partial curve].
With `CC1=C(C(=O)Nc2cc(C)ccn2)C(c2ccc(C)cc2)C2=C(CCCC2=O)N1` (stereo not drawn) the AC50 was 12.6 µM [rising, single point].
For `COc1ccc(Cc2nn3c(-c4cc(OC)c(OC)c(OC)c4)nnc3s2)cc1`, the AC50 was 5.01 µM [rising, partial curve].
In the case of `C=CCn1c(Cc2cccs2)nnc1SCC(=O)Nc1cccc(OC)c1`, the AC50 is reported as 25.1 µM [rising, single point].
For `Cc1cc(-n2c(=O)c(C#N)cc3c(=O)n4ccccc4nc32)no1`, the AC50 was 7.94 µM [rising, partial curve].
